Reference: PubChem BioAssay AID1224828 (NIAID, 2016)
This is a random part of about 17,000 reagents. 762 of all reagents (4.5%) were called active. 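Active calls include both raised and lowered p65 entry, mostly lowered; wells with fewer than 50 cells lack a z-score.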 Raw values are not corrected between plates. The numbers tell different reagents against one gene apart.

- Purpose: 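Knock-downs that increase or decrease LPS-induced p65 nuclear translocation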 (primary screen)
- Cells: mouse RAW264.7 G9 macrophage reporter cells (GFP-p65, Tnf promoter-mCherry)
- Knock-down reagent: siRNA pool against mouse genes, 100 nM
- Timing: 2 days siRNA transfection, then 40 min LPS before fixation
- Challenge: LPS (Salmonella minnesota R595) at 10 ng/ml
- Measurement: 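Imaged p65 nuclear translocation ratio, normalised to the plate median, converted to robust z-scores and averaged across two replicates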
- Reading the numbers: p65 translocation robust z-score: higher = more nuclear NF-kappaB p65 after LPS than the plate median; nuclear/cytoplasmic p65 ratio: higher = more nuclear NF-kappaB p65
- Call rule: 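Called active when z exceeds 3.3 or falls under -1.56 (median of Tlr4 controls), giving activity score of at least 50; no calls for control wells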
- Meaning of the calls: active = hit (p65 shift raised or lowered); inactive = no clear change

gene symbol | reagent no. | p65 translocation robust z-score | nuclear/cytoplasmic p65 ratio, rep 1 | nuclear/cytoplasmic p65 ratio, rep 2 | low cell count flag | Call
Donson (GeneID 60364) | 1 | – | 1.06 | 0 | fewer than 50 cells per well; well left out of scoring | inactive
Prkg1 (GeneID 19091) | 1 | -0.09 | 1.75 | 1.3 | enough cells to score | inactive
Hpdl (GeneID 242642) | 1 | -0.68 | 1.5 | 1.71 | enough cells to score | inactive
Xlr4b (GeneID 27083) | 1 | – | 1.15 | 1.19 | fewer than 50 cells per well; well left out of scoring | inactive
Hsd17b3 (GeneID 15487) | 1 | 0.42 | 1.37 | 1.44 | enough cells to score | inactive
Setd1b (GeneID 208043) | 1 | – | 1.64 | 2.09 | fewer than 50 cells per well; well left out of scoring | inactive
Prx (GeneID 19153) | 1 | 0.21 | 1.51 | 1.45 | enough cells to score | inactive
Rasa2 (GeneID 114713) | 1 | -0.38 | 1.42 | 1.51 | enough cells to score | inactive
Bcs1l (GeneID 66821) | 1 | -0.05 | 1.61 | 1.6 | enough cells to score | inactive
Brk1 (GeneID 101314) | 1 | 0 | 1.5 | 1.55 | enough cells to score | inactive
Stx12 (GeneID 100226) | 1 | -0.71 | 1.31 | 1.16 | enough cells to score | inactive
Pcdhgb5 (GeneID 93702) | 1 | 2.36 | 1.8 | 1.48 | enough cells to score | inactive
Gna14 (GeneID 14675) | 1 | 0.07 | 1.49 | 1.62 | enough cells to score | inactive
Med7 (GeneID 66213) | 1 | 0.21 | 1.64 | 1.29 | enough cells to score | inactive
Ccnc (GeneID 51813) | 1 | – | 1.67 | 1.47 | fewer than 50 cells per well; well left out of scoring | inactive
Foxo6 (GeneID 329934) | 1 | 0.79 | 1.66 | 1.62 | enough cells to score | inactive
Ntn1 (GeneID 18208) | 1 | -0.22 | 1.34 | 1.45 | enough cells to score | inactive
Mup3 (GeneID 17842) | 1 | -1.57 | 1.53 | 1.33 | enough cells to score | active
Pspc1 (GeneID 66645) | 1 | 0.17 | 1.52 | 1.24 | enough cells to score | inactive
Ap1g2 (GeneID 11766) | 1 | -1.17 | 1.45 | 1.48 | enough cells to score | inactive
Krabd3 (GeneID 77827) | 1 | 0.75 | 1.51 | 1.6 | enough cells to score | inactive
Il5 (GeneID 16191) | 1 | 0.05 | 1.46 | 1.41 | enough cells to score | inactive
Alkbh6 (GeneID 233065) | 1 | 0.6 | 1.71 | 1.76 | enough cells to score | inactive

Entries listed so far whose gene name starts with A or a (2):
gene symbol | reagent no. | p65 translocation robust z-score | nuclear/cytoplasmic p65 ratio, rep 1 | nuclear/cytoplasmic p65 ratio, rep 2 | low cell count flag | Call
Ap1g2 (GeneID 11766) | 1 | -1.17 | 1.45 | 1.48 | enough cells to score | inactive
Alkbh6 (GeneID 233065) | 1 | 0.6 | 1.71 | 1.76 | enough cells to score | inactive

The list goes on.
gene symbol | reagent no. | p65 translocation robust z-score | nuclear/cytoplasmic p65 ratio, rep 1 | nuclear/cytoplasmic p65 ratio, rep 2 | low cell count flag | Call
Akr1cl (GeneID 70861) | 1 | -1.13 | 1.15 | 1.09 | enough cells to score | inactive
Fam241a (GeneID 70617) | 1 | 0.26 | 1.4 | 1.61 | enough cells to score | inactive
Hemgn (GeneID 93966) | 1 | -0.31 | 1.6 | 1.51 | enough cells to score | inactive
2300002M23Rik (GeneID 69542) | 1 | – | 1.42 | 1.44 | fewer than 50 cells per well; well left out of scoring | inactive
Tnni1 (GeneID 21952) | 1 | -0.03 | 1.49 | 1.54 | enough cells to score | inactive
Parp4 (GeneID 328417) | 1 | 0.56 | 1.58 | 1.43 | enough cells to score | inactive
Asb8 (GeneID 78541) | 1 | – | 1.51 | 1.3 | fewer than 50 cells per well; well left out of scoring | inactive
Or2a12 (GeneID 258292) | 1 | -0.13 | 1.45 | 1.24 | enough cells to score | inactive
Zmym2 (GeneID 76007) | 1 | 0.54 | 1.66 | 1.51 | enough cells to score | inactive
C1qa (GeneID 12259) | 1 | -0.45 | 1.61 | 1.48 | enough cells to score | inactive
Pcdhga4 (GeneID 93712) | 1 | 0.33 | 1.46 | 1.3 | enough cells to score | inactive
Auts2 (GeneID 319974) | 1 | -1.24 | 1.16 | 1.29 | enough cells to score | inactive
Trp53 (GeneID 22059) | 1 | -0.7 | 1.44 | 1.38 | enough cells to score | inactive
Pts (GeneID 19286) | 1 | -0.71 | 1.45 | 1.38 | enough cells to score | inactive
Arrdc3 (GeneID 105171) | 1 | -1.24 | 1.35 | 1.57 | enough cells to score | inactive
Chga (GeneID 12652) | 1 | -0.45 | 1.4 | 1.32 | enough cells to score | inactive
Apobec2 (GeneID 11811) | 1 | 0.35 | 1.7 | 1.65 | enough cells to score | inactive
Zfp428 (GeneID 232969) | 1 | -2.21 | 1.14 | 1.13 | enough cells to score | active
Ptprh (GeneID 545902) | 1 | 0.25 | 1.56 | 1.54 | enough cells to score | inactive
Pmm1 (GeneID 29858) | 1 | – | 1.21 | 1.31 | fewer than 50 cells per well; well left out of scoring | inactive
Tescl (GeneID 69301) | 1 | – | 1.16 | 1.42 | fewer than 50 cells per well; well left out of scoring | inactive
Dpy19l1 (GeneID 244745) | 1 | 0.35 | 1.49 | 1.59 | enough cells to score | inactive
Or1e25 (GeneID 193053) | 1 | -0.16 | 1.58 | 1.41 | enough cells to score | inactive
Tex16 (GeneID 83556) | 1 | -0.86 | 1.26 | 1.09 | enough cells to score | inactive
Rapsn (GeneID 19400) | 1 | -0.64 | 1.44 | 1.24 | enough cells to score | inactive
Sppl2c (GeneID 237958) | 1 | -0.02 | 1.68 | 1.57 | enough cells to score | inactive
Rptn (GeneID 20129) | 1 | – | 1.3 | 1.24 | fewer than 50 cells per well; well left out of scoring | inactive
Fbxo4 (GeneID 106052) | 1 | – | 1.27 | 1.09 | fewer than 50 cells per well; well left out of scoring | inactive
Fbxo4 (GeneID 106052) | 2 | -0.04 | 1.44 | 1.38 | enough cells to score | inactive
Rbp3 (GeneID 19661) | 1 | 0.02 | 1.52 | 1.52 | enough cells to score | inactive
Cog2 (GeneID 76332) | 1 | 0.02 | 1.54 | 1.85 | enough cells to score | inactive
Zfp764l1 (GeneID 101604) | 1 | – | 1.04 | 1.22 | fewer than 50 cells per well; well left out of scoring | inactive
Tmem154 (GeneID 320782) | 1 | -0.63 | 1.37 | 1.46 | enough cells to score | inactive
Ifna7 (GeneID 15970) | 1 | 0.51 | 1.49 | 1.45 | enough cells to score | inactive
Unc5cl (GeneID 76589) | 1 | – | 1.41 | 1.23 | fewer than 50 cells per well; well left out of scoring | inactive
Sack1g (GeneID 69640) | 1 | – | 1.77 | 1.34 | fewer than 50 cells per well; well left out of scoring | inactive
